Assay results published in paper PMC3816256, “Sgol2 provides a regulatory platform that coordinates essential cell cycle processes during meiosis I in oocytes” (eLife, 2013).

What was measured:
Assay in all cases: far-Western, overlay or dot blot; far-western blot of Sgol2 fragments 120-180 with Mad2; which partner was on the membrane is not stated
[1] = biological target: T1, Sgol2 fragment spanning amino-acid residues 120-180, wild type MIM (mouse) (UniProt Q7TSY8)
T1 sequence: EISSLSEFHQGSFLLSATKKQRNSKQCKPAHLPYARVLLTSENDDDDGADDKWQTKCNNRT

[2] = biological target: T2, Sgol2 fragment spanning amino-acid residues 120-180, H150E (mouse) (UniProt Q7TSY8)
T2 sequence: T1 sequence with H31E

[3] = biological target: T3, Sgol2 fragment spanning amino-acid residues 120-180, H150A (mouse) (UniProt Q7TSY8)
T3 sequence: T1 sequence with H31A

Measured: binding

Mad2
binds: [1] | [2] | [3]

Where a chain is given by its changes, count along the chain named. Results are given in words; binding and its absence hold for the method and conditions named. Binding can be weak; no strength is given.
